Laboratory results reported in the supplement of paper PMC10338343.
± gives the standard deviation. This is a selection; strong and weak results do not stand in their true shares. Many entries were measured with a wide error.

Test system: MIWI (PIWIL1) piRISC loaded with piRNA #2 (30 nt)
Test: pre-steady-state target cleavage rate (min^-1); MIWI and MILI are mouse PIWI proteins and EfPiwi is from a freshwater sponge; tags in brackets are library labels; higher = faster piRNA-guided slicing of the target
Conditions: guide: piRNA #2 5'p-UUAGGUAACCCAGUAGAUCCAGAGGAAUUC; auxiliary factor: 500 nM mouse GTSF1
Procedure, shortened: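 In Cleave-'n-Seq, a transcribed, DNA-blocked target RNA library (0.1 nM) was combined with 1 nM active affinity-purified piRISC bearing one synthetic guide, with or without 500 nM GTSF1 partner protein. Reactions ran in HEPES–potassium acetate buffer at 33 °C for 0–8 or 0–960 min. Uncleaved targets were sequenced and normalised to depth and to weakly complementary targets, three trials were pooled, and k3 was capped at 0.0001 min^-1. The pre-steady-state cleavage rate was obtained by fitting a burst-and-steady-state model.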

Sequence	pre-steady-state target cleavage rate
CUUAAGGACUGGAUCGUACUGGGUUACCUAA	0.000417 ± 0.035
CUUAAGGAGACGUAUCUACUGGGUUACCUAA	0.00127 ± 0.0057
CUUAAGGUCUGGAUCUACUGGGUUUGCUAA	0.0859 ± 0.018
CUUAAGGAGUGGAUCUUCUGGGUUACCAAA	0.00146 ± 0.012
CUAUUCCUCUGGAUCUACUGGCAAACCUAA	0.00265 ± 0.0034
CUAUUCCUCUGGAUCUACUCCCAAUGGAUA [g12:g28:cont:t1A]	0.000114 ± 0.043
CUUAUCCUGUGGAUCUACUGGGUUACCUAA	0.443 ± 0.056
CAAUUCCUCUGGAUCUCCUGGGUUACCUAA	0.231 ± 0.051
CUUAAGGAGUGGAUCUACUGGCGUUACCUAA	0.00416 ± 0.0061
CUUAAGGAGUGCAACUACUGGGUUACCUAA	0.000272 ± 0.043
CAAUUCCUCAGCAUCUACUGGGUUACCUAA	0.437 ± 0.044
CUUAAGGAGUGGAUGUACUGGGAUACCUAA	0.00459 ± 0.0056
CUUAAGGAGACCAUCUAGAGGGUUACCUAA	0.00123 ± 0.0065
CUUAAGGAGACCUUCUACUGAGGUUACCUAA	0.00175 ± 0.0056
CUUAAGGACUGGAUCUACUGGGUUUCCUUA	0.00185 ± 0.013
CUUAAGGACUGGAUCUACUGGGAUUACCUAA	0.00587 ± 0.012
CUUAAGGAGAGGAUCUACUGGCUUACCUUA	0.000453 ± 0.025
CUUAAGGAGACCUACUACUGGGUUACGUUA	0.00138 ± 0.0059
CUUAAGGAGACCUAGAAACUGGGUUACCUAA	0.000942 ± 0.01
CUUAAGGAGACCUCCUACUGGGUUACCUAA	0.00374 ± 0.0053
CUUAAGGAGACCUAGAUCUGGGGUUACCUAA	0.000832 ± 0.0097
CUUAAGGAGUGGAUCUACAGGCUUACCUAA	0.00253 ± 0.01
CUUAAGGACUCGAUGUACUGGGUUACCUAA	0.00718 ± 0.0079
CUUUUCCUCUGGAUCUACUUGGGUUACCUAA	0.00187 ± 0.0054

Sequence	pre-steady-state target cleavage rate
CUUAAGGAGACCAUCUACUGGGUUACGCUAA	0.00108 ± 0.0054
CUAUUCCUCUCGUUCUACUGGGUUACCUAA	0.75 ± 0.077
CUUAAGGAGUGGAUCUUCUGGGUUUCCUAA	0.00101 ± 0.0091
CUUAAGGAGAGGAUCUACUGGGUUACUCUAA	0.0043 ± 0.0056
CUUAAGCUCUGGAUCUUGAGGGUUACCUAA	0.00114 ± 0.0087
CUUAAGGAGACCUACUACUCGGUUACCUAA	0.00059 ± 0.011
CUUAUCCUCUGGAUCUACUGGGUUAGGAUA [g6:g26:cont:t1A]	0.00315 ± 0.0041
CUUAAGGAGUCGAUCUUCUGGGUUACCUAA	0.000186 ± 0.033
CUAAUCCUCUCGAUCUACUGGGUUACCUAA	0.631 ± 0.042
CUUAAGGAGACCUACUACUCGGUUACCAAA	0.000108 ± 0.052
CUUAAGGAGAGCAUCAACUGGGUUACCUAA	0.00152 ± 0.0041
GAAUUCCUCUGGAUUACUGGGUUACCUAA	0.413 ± 0.04
CUUAAGGAGACCUACUGACUGGGUUACCUAA	0.000321 ± 0.013
CUUAAGGAGAGCAUCUACUGGGUUAGCUAA	0.00135 ± 0.0047
CUUAAGGAGACGAUCUACUGGGUUACCAAA	0.00128 ± 0.0064
CUUAAGGAGACCAUCUAACUGGGUUACCUAA	0.000909 ± 0.0068
CUUAAGGAGACCUUCUACUGGGAUUCCUAA	0.00107 ± 0.008
CUUAAGGAGACCUAGAUGACCGUUACCUUA	0.000231 ± 0.025
CUUAAGGACUGGAUCUACUGGCAUACCUAA	0.00297 ± 0.014
CUUAAGGAGUGGAUCUACGUGGGUUACCUAA	0.000227 ± 0.036
CUUAAGGAGACCUAGAACCUGGGUUACCUAA	0.000117 ± 0.023
CUUAAGGAGACCAUGUACUGGCUUACCUAA	0.000125 ± 0.031
CUUAAGGAGACCUACGUACUGGGUUACCUAA	0.00075 ± 0.011
CAAUUCCUCUGGAUCUACUGAGGUUACCUAA	0.00648 ± 0.0048

Exported as comma-separated lines: entries from further up
Sequence,pre-steady-state target cleavage rate
CUUAAGGAGUGCAACUACUGGGUUACCUAA,0.000272 ± 0.043
CUUAAGGACUGGAUCUACUGGGUUUCCUUA,0.00185 ± 0.013
CUAAUCCUCUCGAUCUACUGGGUUACCUAA,0.631 ± 0.042
CUUAAGGAGACCUUCUACUGGGAUUCCUAA,0.00107 ± 0.008

The list goes on.

Sequence	pre-steady-state target cleavage rate
CAAUUCCUCUGGAUCUACUAGGGUUACCUAA	0.00464 ± 0.0052
CUUAAGGAGUCGAUCUACUGGGUUUCCUAA	0.000488 ± 0.012
CUUAAGGAGACCUUGUACUGGGUAACCUAA	0.000332 ± 0.019
CUUAAGGAGACCAUCUACUGGGUAAGCUAA	0.000584 ± 0.013
CUUAAGGAGACCAUCUACUGGGUUGACCUAA	0.00166 ± 0.0072
CUUAAGGAGACCAUGUACUGGGUUACGUAA	0.000322 ± 0.0089
CUUAAGGAGACCUAGAUGACGGUUACCUAAA	0.000125 ± 0.03
CUUAACCUCUGGAUCUACUGGGUUACUAA	0.116 ± 0.018
CAAUUCCUCUCGAUCUACUGGGUUACCUAA	0.822 ± 0.063
CUUAAGCUCUGGAUCUACUCGCUUACCUAA	0.00339 ± 0.0048
CUUAAGGACUGGAUCUACUGCGAUACCUAA	0.0164 ± 0.02
CUUAAGGACUGGAUCAACUGGGAUACCUAA	0.0079 ± 0.011
CUUAAGGAGAGGUUCUACUGGGUUAGCUAA	0.0013 ± 0.0059
CUUAAGGAGACCUAGAUGACCCAUACCUAG [g2:g7:cont:t1G]	0.000183 ± 0.032
CUUAAGGAGACCUAGAUCUGGAGUUACCUAA	0.00068 ± 0.015
CUUAAGGAGACGAUCUACAGGGUUAGCUAA	0.00122 ± 0.006
CUUAAGGAGACCUUCUACUGCGUUACCAAA	0.000886 ± 0.0072
CUUAAGGAGACCUUCUACUGGGAUACGUAA	0.000559 ± 0.012
CUUAAGGACUGGAACUACUGGGAUACCUAA	0.0152 ± 0.016
CUUAAGGAGAGGAUCUUCUGGGUUACCUUA	0.000836 ± 0.013
CUUAAGGACUGGAUCAACUGGGUUUCCUAA	0.0071 ± 0.0085
CUUAAGGACUGGAUGUUCUGGGUUACCUAA	0.00493 ± 0.014
CUUAUCCUCUGGAUCUACUGUGUUACCUAA	0.722 ± 0.074
